For at least one entry, the source does not settle the construct or the ends of the probe. The comparison behind a weaker result is the experiment's own reference, which may not be listed here. Protein sequences can lack the tags named with them.

Results on 2 sequences are retold here after article PMC2935386.

For this data set, the target named is T1, TRβ1 DBD-LBD (TR DL, TRβ1ΔAB) (human) (UniProt P10828).
T1 sequence (looked up): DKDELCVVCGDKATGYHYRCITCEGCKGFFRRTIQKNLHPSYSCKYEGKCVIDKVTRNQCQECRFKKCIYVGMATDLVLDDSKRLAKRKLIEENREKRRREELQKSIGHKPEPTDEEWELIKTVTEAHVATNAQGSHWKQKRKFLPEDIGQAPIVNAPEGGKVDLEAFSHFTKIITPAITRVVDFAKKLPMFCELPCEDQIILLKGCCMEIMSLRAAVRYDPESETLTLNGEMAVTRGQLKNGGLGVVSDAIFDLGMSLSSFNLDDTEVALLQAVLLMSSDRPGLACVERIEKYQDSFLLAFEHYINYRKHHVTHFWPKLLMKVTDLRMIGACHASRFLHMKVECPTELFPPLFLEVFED
The data set is described as follows: fluorescence anisotropy. Conditions: T3, very weak, Kd not determinable; Fluorescence anisotropy: 10 nM DNA, 20 mM Hepes pH 8.0, 50 mM NaCl, 1 mM MgCl2, 3 mM DTT, 5% glycerol, 10°C; agarose gel 1.3% in 0.5x TBE; recombinant protein; residues 102-461; protein details: His (pET28a); label: 5' fluorescein (FITC) on forward strand.

For “CACTTGATAACAGAAAGTGATAACTCT (double strand) [GATA-RE (canonical)]”, the binding result is recorded as “binds more weakly”.

As for “TCAATAGATGCTTTTCAGATAAGAA (double strand) [TSH GATA-RE]”, the binding result is “binds more weakly”.
